Measurements: PMC12583701

The chains behind the UniProt entries cited, without tags or fusion partners. Where a name states a change or a piece, a line headed by the entry shows the natural chain unless it says otherwise.
UniProt P49024: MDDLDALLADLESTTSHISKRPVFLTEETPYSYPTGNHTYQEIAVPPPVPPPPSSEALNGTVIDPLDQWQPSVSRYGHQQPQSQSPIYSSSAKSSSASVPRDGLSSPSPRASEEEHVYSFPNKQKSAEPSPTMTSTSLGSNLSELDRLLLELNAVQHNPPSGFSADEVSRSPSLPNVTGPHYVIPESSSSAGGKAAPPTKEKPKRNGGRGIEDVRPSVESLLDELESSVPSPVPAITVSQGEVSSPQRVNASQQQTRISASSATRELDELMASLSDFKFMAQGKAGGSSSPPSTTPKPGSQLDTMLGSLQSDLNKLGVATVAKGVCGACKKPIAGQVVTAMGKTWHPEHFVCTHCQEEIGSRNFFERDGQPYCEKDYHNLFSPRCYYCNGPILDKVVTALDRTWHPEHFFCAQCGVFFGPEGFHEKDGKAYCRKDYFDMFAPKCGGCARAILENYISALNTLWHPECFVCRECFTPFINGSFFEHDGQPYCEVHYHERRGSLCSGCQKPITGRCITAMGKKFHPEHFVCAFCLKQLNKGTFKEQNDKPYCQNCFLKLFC

Assays:
Assay in all cases: co-IP; anti-FLAG immunoprecipitation of lysates of Neuro2a cells transfected with FLAG-tagged paxillin variants, in the presence of forskolin; immunoblot of endogenous partners
[1] = molecular target: Flag-Paxillin(P398A/Y399A,516A/Y517A;P575A/Y576A) (UniProt P49024)
[2] = molecular target: Flag-Paxillin(P575A/Y576A) (UniProt P49024)
[3] = molecular target: Flag-Paxillin(P398A/Y399A) (UniProt P49024)
[4] = molecular target: Flag-Paxillin(P516A/Y517A) (UniProt P49024)

Measured: binding

B1: importin β2 (protein, UniProt Q8BFY9 1-898)
chain: MVWDRQTKMEYEWKPDEQGLQQILQLLKESQSPDTTIQRTVQQKLEQLNQYPDFNNYLIFVLTKLKSEDEPTRSLSGLILKNNVKAHFQNFPNGVTDFIKSECLNNIGDSSPLIRATVGILITTIASKGELQNWPDLLPKLCSLLDSEDYNTCEGAFGALQKICEDSAEILDSDVLDRPLNIMIPKFLQFFKHSSPKIRSHAVACVNQFIISRTQALMLHIDSFIENLFALAGDEEAEVRKNVCRALVMLLEVRMDRLLPHMHNIVEYMLQRTQDQDENVALEACEFWLTLAEQPICKDVLVRHLPKLIPVLVNGMKYSDIDIILLKGDVEEDETIPDSEQDIRPRFHRSRTVAQQHEEDGIEEEDDDDDEIDDDDTISDWNLRKCSAAALDVLANVYRDELLPHILPLLKELLFHHEWVVKESGILVLGAIAEGCMQGMIPYLPELIPHLIQCLSDKKALVRSITCWTLSRYAHWVVSQPPDTYLKPLMTELLKRILDSNKRVQEAACSAFATLEEEACTELVPYLAYILDTLVFAFSKYQHKNLLILYDAIGTLADSVGHHLNKPEYIQMLMPPLIQKWNMLKDEDKDLFPLLECLSSVATALQSGFLPYCEPVYQRCVNLVQKTLAQAMLNNAQPEQYEAPDKDFMIVALDLLSGLAEGLGGNIEQLVARSNILTLMYQCMQDKMPEVRQSSFALLGDLTKACFQHVKPCIADFMPILGTNLNPEFISVCNNATWAIGEISIQMGIEMQPYIPMVLHQLVEIINRPNTPKTLLENTAITIGRLGYVCPQEVAPMLQQFIRPWCTSLRNIRDNEEKDSAFRGICTMISVNPSGVIQDFIFFCDAVASWINPKDDLRDMFCKILHGFKNQVGDENWRRFSDQFPLPLKERLAAFYGV
binds: [1] | [2] | [3] | [4]

No constants are given. Whether binding was seen depends on the method and setting. In cells and extracts the contact can be indirect. Binding can be weak; no strength is given.
